Data published in the supplement of paper PMC7824004.
This is one part of the list. The data scatter; read single values as rough.

test system: Candida albicans SN425; assay: biofilm OD600 B-score; higher = more biofilm (less inhibition); conditions: 10 µM; assay detail: High-throughput adherence inhibition optical density biofilm assay with C. albicans SN425 in RPMI-1640/MOPS pH 7.0, 384-well plates. …
Protocol: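 High-throughput adherence inhibition optical density biofilm assay with C. albicans SN425 in RPMI-1640/MOPS pH 7.0, 384-well plates. Compound (10 µM) was present only during the 90 min adherence step, then washed out, and the biofilm grew 24 h without compound. Biofilm was read as OD600 after removing the media. Scores are the difference from the mean in standard deviations and the plate B-score.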

Row | Structure (SMILES) | biofilm OD600 B-score
1 | COc1ccc(S(=O)(=O)Nc2cccc(C)c2)cc1OC | -2.12
2 | CCCOc1ccc(C(=O)NCCC(=O)O)cc1 | -2.81
3 | CCc1cccc(OCCCN2CCCCC2)c1 | 3.47
4 | O=C(NCc1ccncc1)C1CCN(C(=O)Cc2ccccc2)CC1 | -0.525
5 | O=C(CN1CCN(c2ccc(F)cc2)CC1)Nc1ccccn1 | 0.134
6 | C/C=C(\C)CN1CCN(c2ccc(C)cc2)CC1 | -1.87
7 | COc1ccc(COCC(O)CN2CCN(c3ccccc3)CC2)cc1OC (stereo not drawn) | 1.24
8 | O=C(NCc1ccco1)c1cc(F)c(F)cc1Cl | -0.0663
9 | CCc1ccccc1NS(=O)(=O)c1ccc(NC(C)=O)cc1 | -3.36
10 | CN(C)CCN(C)Cc1ccccc1Cl | 0.0463
11 | O=C(Nc1cccc(NC(=O)C2CCCC2)c1)C1CCCC1 | 0.627
12 | Cc1cc(Cl)ccc1OCC(O)CN1CCN(C)CC1 (stereo not drawn) | -0.92
13 | COc1ccc(C(C)(C)C)cc1NC(=O)C1CCCCC1C(=O)O (stereo not drawn) | 0.033
14 | CCc1ccc(OCC(O)CNC(C)C)cc1 (stereo not drawn) | -2.21
15 | O=C(NCC(O)c1ccccc1)c1ccc(Cl)cc1 (stereo not drawn) | -0.359
16 | Cc1ccc(C)c(CNc2ccc3[nH]ncc3c2)c1 | -2.87
17 | O=C(CCC1CCCCC1)Nc1ncn[nH]1 | 1.1
18 | CCN1CCN(Cc2ccc(NC(C)=O)cc2)CC1 | 0.302
19 | CCC1CCC(NCC(C)(C)CN(C)C)CC1 (stereo not drawn) | 0.0769
20 | CCC(Sc1nc(-c2ccccc2)cc(=O)[nH]1)C(=O)O (stereo not drawn) | -1.45
21 | CC(C)c1ccc(OCC(=O)NCc2ccccn2)cc1 | 1.3
22 | Cc1cc(C)c(S(=O)(=O)Nc2ncccc2C)c(C)c1 | 1.84
23 | CCOc1ccccc1OCCN1CC(C)CC(C)C1 (stereo not drawn) | 1.17

Part of the list above in order of count of non-hydrogen atoms, descending:
Row | Structure (SMILES) | biofilm OD600 B-score
13 | COc1ccc(C(C)(C)C)cc1NC(=O)C1CCCCC1C(=O)O (stereo not drawn) | 0.033
21 | CC(C)c1ccc(OCC(=O)NCc2ccccn2)cc1 | 1.3
22 | Cc1cc(C)c(S(=O)(=O)Nc2ncccc2C)c(C)c1 | 1.84
15 | O=C(NCC(O)c1ccccc1)c1ccc(Cl)cc1 (stereo not drawn) | -0.359
